Data published in US7488721B2, “Real time methylumbelliferone-based assay” (McMaster University, priority 2004, dated 2009).
The structures given here were assigned with low confidence; some may be wrong.

The chains behind the UniProt entries cited, without tags or fusion partners. Residues count along the entry.
UniProt P06865, 89-529 limits assumed: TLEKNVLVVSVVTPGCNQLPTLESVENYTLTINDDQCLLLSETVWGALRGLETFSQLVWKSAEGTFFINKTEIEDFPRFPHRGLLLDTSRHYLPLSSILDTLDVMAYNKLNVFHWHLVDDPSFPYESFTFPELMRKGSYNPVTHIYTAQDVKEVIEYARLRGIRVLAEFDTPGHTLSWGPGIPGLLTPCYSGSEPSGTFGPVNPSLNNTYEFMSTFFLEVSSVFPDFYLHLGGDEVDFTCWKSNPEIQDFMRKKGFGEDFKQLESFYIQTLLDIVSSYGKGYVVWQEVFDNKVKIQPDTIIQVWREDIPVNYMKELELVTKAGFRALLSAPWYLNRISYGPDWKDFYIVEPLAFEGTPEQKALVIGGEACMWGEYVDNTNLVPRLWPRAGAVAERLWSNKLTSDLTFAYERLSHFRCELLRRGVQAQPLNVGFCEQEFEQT
UniProt P06865, 23-74 partner limits assumed: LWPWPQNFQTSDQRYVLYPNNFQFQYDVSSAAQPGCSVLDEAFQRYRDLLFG
UniProt P07686, 122-311 limits assumed: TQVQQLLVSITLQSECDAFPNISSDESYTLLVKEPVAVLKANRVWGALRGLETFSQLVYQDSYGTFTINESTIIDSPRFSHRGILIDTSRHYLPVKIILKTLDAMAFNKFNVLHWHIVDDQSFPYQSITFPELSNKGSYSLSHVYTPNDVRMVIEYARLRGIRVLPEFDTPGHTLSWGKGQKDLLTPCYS
UniProt P07686, 315-556 limits assumed: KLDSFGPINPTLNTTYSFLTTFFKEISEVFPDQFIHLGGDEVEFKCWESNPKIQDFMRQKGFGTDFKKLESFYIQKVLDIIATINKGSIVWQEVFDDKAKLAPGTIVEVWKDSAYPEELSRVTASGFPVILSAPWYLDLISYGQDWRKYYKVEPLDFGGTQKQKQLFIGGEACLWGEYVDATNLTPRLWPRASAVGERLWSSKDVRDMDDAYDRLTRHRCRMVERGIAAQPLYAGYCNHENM
UniProt P07686, 50-107 partner limits assumed: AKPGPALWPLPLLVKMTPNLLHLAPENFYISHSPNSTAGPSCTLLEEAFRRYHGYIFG

Legend:
[1] = tested on: hexosaminidase activity in ISD cells; experiment: Endpoint MUG/MUP assay of ISD cells treated with screen hits (Example 5); details: ISD cells grown 2-5 days with compound
[2] = target: Human N-acetyl-β-hexosaminidase A (HexA) (Homo sapiens, UniProt P06865+P07686); details: purified HexA 100 ng/mL, MUG 58.8 μM, pH 4.3

IC50 [2]: 34 µM
SMILES: O=C(C(C(=O)N1CCc2ccccc21)c1ccccc1)N1CCc2ccccc21
enhancement of hexosaminidase activity [1]: good enhancement of hexosaminidase activity
